According to article PMC7764601 (Molecules, 2020):

Test system: mice
Test: Spontaneous locomotor activity in mice (photoresistor actometers)
Format: in vivo
Protocol: The experiments were carried out on male albino Swiss mice (body weight 18–26 g). All of the animals were housed at constant humidity (60%) and temperature (25 °C) and kept on a 12 h light/dark cycle. Animals were fed a standard pellet diet with free access to tap water. All procedures were conducted according to Animal Care and Use Committee guidelines, and approved by the Ethical Committee of Jagiellonian University, Kraków.
Control and experimental groups consisted of 6–8 animals each. The investigated compounds were administered intraperitoneally as a suspension in 0.5% methylcellulose in a constant volume of 10 mL/kg.
Spontaneous locomotor activity in mice was measured in circular photoresistoractometers (32 cm in diameter). […] Thirty minutes after the injection of the investigated compounds, mice were placed in the actometers for 30 min. Each crossing of the light beam was recorded automatically. The amount of impulses was noted after 30 min.

Compound | ED50 locomotor activity test relative to ED50 writhing test [fold]
COc1nc(C)cc2c1C(=O)N(CCN1CCN(c3ccccc3)CC1)C2=O [Compound 9] | 5
COc1ccccc1N1CCN(CCN2C(=O)c3cc(C)nc(OC)c3C2=O)CC1 [Compound 11] | 6
